Measurements as given in patent publication US20220275100A1.
Results are given in words; binding and its absence hold for the method and conditions named. Some binding calls cover weakened binding; strength is not graded here.

Protein sequences, listed by entry. Tags and fused reporters are not part of them. Lines headed by an entry give the natural chain unless they say otherwise; changes in a name come on top.
UniProt P28907: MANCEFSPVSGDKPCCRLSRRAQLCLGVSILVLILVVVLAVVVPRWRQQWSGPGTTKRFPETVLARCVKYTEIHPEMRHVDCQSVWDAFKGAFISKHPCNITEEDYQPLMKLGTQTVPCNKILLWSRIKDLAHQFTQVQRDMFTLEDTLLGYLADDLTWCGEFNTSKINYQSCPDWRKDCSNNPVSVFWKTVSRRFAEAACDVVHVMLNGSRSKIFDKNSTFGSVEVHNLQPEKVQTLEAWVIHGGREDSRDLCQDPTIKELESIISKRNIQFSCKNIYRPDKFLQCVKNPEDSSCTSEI

Molecular target: Fusion protein of CD38 extracellular domain with His tag: CD38-ECD-His (human) (UniProt P28907)
Experiment: SPR (Biacore)

binding | Binder
binds | h011-02 (antibody, human IgG1, kappa, V domains shown) VH: EVQLVESGGGLVQPGGSLRLSCAASGFTFSDYGMHWVRQAPGKGLEWVAFISSGSSSIYYADTVKGRFTISRDNAKSSLFLQMTSLRAEDTAVYSCARNYVSSYGYFDYWGQGTTVTVSS VL: DIVMTQSPDSLAVSLGERATINCRASENVDNYGISFMHWYQQKPGQPPKLLIYRASNLESGVPDRFSGSGSGTDFTLTISSLQAEDVAVYYCQQSNKDPLTFGGGTKVEIKR
binds | h011-04 (antibody, human IgG1, kappa, V domains shown) VH: EVQLVESGGGLVQPGGSLRLSCAASGFTFSDYGMHWVRQAPGKGLEWVAFISSGSSSIYYADTVKGRFTISRDNAKSSLFLQMTSLRAEDTAVYSCARNYVSSYGYFDYWGQGTTVTVSS VL: DIVMTQSPDSLAVSLGERATINCRASENVDNYGISFMHWYQQKPGQPPKLLIYRASNLESGVPDRFSGSGSRTDFTLTISSLQAEDVAVYYCQQSNKDPLTFGGGTKVEIKR
binds | h011-05 (antibody, human IgG1, kappa, V domains shown) VH: EVQLVESGGGLVQPGGSLRLSCAASGFTFSDYGMHWVRQAPGKGLEWVAFISSGSSSIYYADTVKGRFTISRDNAKSSLYLQMTSLRAEDTAVYYCARNYVSSYGYFDYWGQGTTVTVSS VL: DIVMTQSPDSLAVSLGERATINCRASENVDNYGISFMHWYQQKPGQPPKLLIYRASNLESGIPDRFSGSGSRTDFTLTISSLQAEDVATYYCQQSNKDPLTFGGGTKVEIKR
binds | h011-03 (antibody, human IgG1, kappa, V domains shown) VH: EVQLVESGGGLVQPGGSLRLSCAASGFTFSDYGMHWVRQAPGKGLEWVAFISSGSSSIYYADTVKGRFTISRDNAKSSLYLQMTSLRAEDTAVYYCARNYVSSYGYFDYWGQGTTVTVSS VL: DIVMTQSPDSLAVSLGERATINCRASENVDNYGISFMHWYQQKPGQPPKLLIYRASNLESGVPDRFSGSGSRTDFTLTISSLQAEDVAVYYCQQSNKDPLTFGGGTKVEIKR
